The experiment has as its system OVCAR8. The experiment can be described thus: cell count relative to DMSO vehicle (fold change); higher = more surviving senescent cells (less killing). The following applies: senescence inducer: cisplatin 10 µM 48 h, then 6 d recovery (CP senescent), exposure time 24 h.

Counter-ions that a name gives are not always drawn. ± gives the standard deviation of the averaged measurements. The list shows a part of the results. Repeats in this data set agree poorly, so a single value says little.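 Cell counts came from imaging DAPI-stained nuclei, excluding as dead any cells lacking phalloidin-stained cytoplasm. Counts per well were normalized to the median vehicle-well count on that plate, and the values were averaged over two replicate plates.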

Turning to `CN1CCN(C(=O)/C=C/c2ccc([N+](=O)[O-])o2)CC1`, the cell count was 0.887 ± 0.022 (compound dose 1 µM) and 0.838 ± 0.019 (compound dose 5 µM).

For the molecule `CC(=O)Nc1ccc(C(=O)Nc2ccccc2N)cc1` [Tacedinaline (CI994)], the cell count by setting is: (compound dose 1 µM) 0.875 ± 0.013; (compound dose 5 µM) 0.794 ± 0.081.

For `COc1cc2c(Nc3ccc(NC(=O)c4ccccc4)cc3)ncnc2cc1OCCCN1CCOCC1`, the cell count came to 1.11 ± 0.12 (compound dose 1 µM) and 1.2 ± 0.11 (compound dose 5 µM).

As for `O=S(=O)(c1ccc2c(c1)C(=NO)c1cc(S(=O)(=O)N3CCCCC3)ccc1-2)N1CCCCC1`, the cell count came out at 0.124 ± 0.064 (compound dose 1 µM) and 0.185 ± 0.052 (compound dose 5 µM).

As to `CNC(=O)COc1cc2cc(Nc3nc(N4C[C@H](C)C[C@H](C)C4)ncc3Cl)ccc2n(C)c1=O`, the cell count runs as follows: (compound dose 1 µM) 0.854 ± 0.03; (compound dose 5 µM) 0.647 ± 0.3.

Turning to `CC1(C)CC[C@]2(C(=O)O)CC[C@]3(C)C(=CC[C@@H]4[C@@]5(C)CC[C@H](O[C@@H]6O[C@H](C(=O)O)[C@@H](O)[C@H](O[C@@H]7OC[C@@H](O)[C@H](O)[C@H]7O)[C@H]6O)C(C)(C)[C@@H]5CC[C@]43C)[C@@H]2C1` [Momordin Ic], the cell count runs as follows: (compound dose 1 µM) 0.988 ± 0.043; (compound dose 5 µM) 0.908 ± 0.26.

Turning to `OCCN1CCN(CC/C=C2/c3ccccc3Sc3ccc(C(F)(F)F)cc32)CC1` [Flupentixol dihydrochloride], the cell count was found to be 1.11 (compound dose 1 µM) and 1.211 ± 0.0071 (compound dose 5 µM).

Molecule `CC(=O)Nc1cccc(-n2c(=O)n(C3CC3)c(=O)c3c(Nc4ccc(I)cc4F)n(C)c(=O)c(C)c32)c1` displayed a cell count (compound dose 1 µM) of 1.07 ± 0.082 and a cell count (compound dose 5 µM) of 0.809 ± 0.033.

On to `CC(C)c1c(C(=O)Nc2ccccc2)c(-c2ccccc2)c(-c2ccc(F)cc2)n1CC[C@@H](O)C[C@@H](O)CC(=O)O` [Atorvastatin (hemicalcium salt)], for which the cell count by setting is: (compound dose 1 µM) 1.01 ± 0.016; (compound dose 5 µM) 0.733 ± 0.017.

`Cc1ncc(C[n+]2csc(CCO)c2C)c(N)n1`: the cell count was found to be 1.24 ± 0.36 (compound dose 1 µM) and 0.54 ± 0.28 (compound dose 5 µM).

`CC(C)(C)c1cnc(CSc2cnc(NC(=O)C3CCNCC3)s2)o1` showed a cell count (compound dose 1 µM) of 1.315 ± 0.0092 and a cell count (compound dose 5 µM) of 0.868 ± 0.059.

As for `COc1ccc(-c2cc(=O)c3c(O)c(OC)c(OC)cc3o2)cc1O` [Eupatorin], the cell count reads like this: (compound dose 1 µM) 1.03 ± 0.07; (compound dose 5 µM) 0.703 ± 0.33.

With `CC(=Cc1ccc(C(=O)O)cc1)c1ccc2c(c1)C(C)(C)CCC2(C)C`, the cell count was 1.13 ± 0.031 (compound dose 1 µM) and 0.834 ± 0.19 (compound dose 5 µM).

As to `COC(=O)Nc1nc2cc(C(=O)c3cccs3)ccc2[nH]1` [Nocodazole], the cell count stood at 0.853 ± 0.21 (compound dose 1 µM) and 0.755 ± 0.047 (compound dose 5 µM).

As for `COc1cc(-c2ccc(=O)[nH]n2)ccc1OC(F)F` [Zardaverine], the cell count reads like this: (compound dose 1 µM) 0.962 ± 0.13; (compound dose 5 µM) 0.729 ± 0.0092.

`Cc1ccc([N+](=O)[O-])cc1S(=O)(=O)N(C)/N=C/c1cnc2ccc(Br)cn12` [PIK-75 (hydrochloride)]: the cell count (compound dose 1 µM) turned out to be 0.815 ± 0.081 and the cell count (compound dose 5 µM) came out at 0.521 ± 0.23.

As to `CCCCCCCc1ccc(CCc2cccc(O)c2C(=O)O)cc1`, the cell count came to 0.777 ± 0.047 (compound dose 1 µM) and 0.917 ± 0.082 (compound dose 5 µM).

Turning to `CC(C)(C)S(=O)(=O)c1ccc2nccc(Nc3n[nH]c4ccc(F)cc34)c2c1`, the cell count reads like this: (compound dose 1 µM) 0.756 ± 0.028; (compound dose 5 µM) 0.812 ± 0.05.

Take `COc1cc(OC)c(/C=C/S(=O)(=O)Cc2ccc(OC)c(NCC(=O)O)c2)c(OC)c1` [Rigosertib (sodium)]: the cell count (compound dose 1 µM) came out at 0.536 ± 0.018 and the cell count (compound dose 5 µM) came out at 0.572 ± 0.067.

Consider `Nc1nc(OCc2ccccc2)c2nc[nH]c2n1` [O6-Benzylguanine], for which the cell count turned out to be 0.795 ± 0.079 (compound dose 1 µM) and 0.749 ± 0.14 (compound dose 5 µM).

In the case of `CN(Cc1cnc2nc(N)nc(N)c2n1)c1ccc(C(=O)N[C@@H](CCC(=O)O)C(=O)O)cc1` [Methotrexate], the cell count (compound dose 1 µM) stood at 1.12 ± 0.1 and the cell count (compound dose 5 µM) was determined as 0.812 ± 0.026.

Regarding `CN(Cc1cnc2nc(N)nc(N)c2n1)c1ccc(C(=O)N[C@@H](CCC(=O)O)C(=O)O)cc1` [Methotrexate (disodium)], the cell count is, setting by setting: (compound dose 1 µM) 1.21 ± 0.016; (compound dose 5 µM) 0.95 ± 0.3.

Turning to `CCCC[C@@H](C=O)NC(=O)[C@H](CC(C)C)NC(=O)[C@H](CC(C)C)NC(C)=O`, the cell count is 1.09 ± 0.065 (compound dose 1 µM) and 1.01 ± 0.12 (compound dose 5 µM).

As to `Nc1nc(NC2CC2)c2ncn([C@H]3C=C[C@@H](CO)C3)c2n1`, the cell count runs as follows: (compound dose 1 µM) 1.13 ± 0.17; (compound dose 5 µM) 1.25 ± 0.085.

`Nc1nc(NC2CC2)c2ncn([C@H]3C=C[C@@H](CO)C3)c2n1` [Abacavir] had a cell count (compound dose 1 µM) of 0.861 ± 0.065 and a cell count (compound dose 5 µM) of 0.481 ± 0.0092.

As for `COc1cc(C(C)=O)ccc1O` [Apocynin], the cell count runs as follows: (compound dose 1 µM) 1.14 ± 0.018; (compound dose 5 µM) 1.3 ± 0.11.

In the case of `COc1cc(C=CC(=O)O)cc(OC)c1O`, the cell count is 0.76 ± 0.054 (compound dose 1 µM) and 0.601 ± 0.2 (compound dose 5 µM).

Regarding `O=C(/C=C/c1ccc(O)c(O)c1)O[C@@H]1[C@H](O)C[C@@](O)(C(=O)O)C[C@H]1OC(=O)/C=C/c1ccc(O)c(O)c1` [4,5-Dicaffeoylquinic acid], the cell count by setting is: (compound dose 1 µM) 1.09 ± 0.17; (compound dose 5 µM) 1.09 ± 0.082.

Take `COC(=O)c1ccc([C@H]2c3[nH]c4ccccc4c3C[C@H](C(=O)OC)N2C(=O)CCl)cc1`: the cell count runs as follows: (compound dose 1 µM) 0.0395 ± 0.0035; (compound dose 5 µM) 0.0305 ± 0.0078.

`CCCCCCCCCCCCc1ccc(S(=O)(=O)Nc2nncs2)cc1`: the cell count is, setting by setting: (compound dose 1 µM) 1.14 ± 0.052; (compound dose 5 µM) 0.871 ± 0.062.

Regarding `C[C@H]1[C@H](C)CC[C@]2(C(=O)O)CC[C@]3(C)C(=CC[C@@H]4[C@@]5(C)C[C@@H](O)[C@H](O)[C@@](C)(CO)[C@@H]5CC[C@]43C)[C@H]12` [Asiatic acid], the cell count was determined as 1.06 ± 0.18 (compound dose 1 µM) and 0.814 ± 0.16 (compound dose 5 µM).

Regarding `CNCCN(C)Cc1c[nH]nc1-c1ccc(O[C@H]2C[C@H](OCCC3CCOCC3)C2)cc1`, the cell count (compound dose 1 µM) worked out at 1.17 ± 0.046 and the cell count (compound dose 5 µM) came to 0.857 ± 0.0057.

As for `CN(C)CC#Cc1ccc(OCCCc2sc(N3CCc4cccc(C(=O)Nc5nc6ccccc6s5)c4C3)nc2C(=O)O)c(F)c1`, the cell count by setting is: (compound dose 1 µM) 0.736 ± 0.097; (compound dose 5 µM) 0.585 ± 0.14.

For the origin of these results see the supplement of paper PMC12462457.
